{
  "source": "patent US12617794B2",
  "about": "“GABAA positive allosteric modulator compounds, methods of making, and uses thereof” (NEUROCYCLE THERAPEUTICS, INC., priority 2019, dated 2026)",
  "test": "HPLC analysis of degradation of TPA023B with acids in acetone (salt screening, Example 1)",
  "type": "physicochemical",
  "details": "50° C. 4 hrs, cooled overnight",
  "note": "For at least one compound, name, drawing or mass did not settle the structure.",
  "data": [
    {"molecule": "CC(C)(O)c1cnn2c(-c3ccc(F)c(-c4c(F)cccc4C#N)c3)cnc2n1", "note": "[TPA023B, 2′,6-difluoro-5′-[3-(1-hydroxy-1-methylethyl)-imidazo[1,2-b][1,2,4]triazin-7-yl]biphenyl-2-carbonitrile]", "values": [
      {"measurement": "Purity (%)", "setting": "TPA023B control in acetone, no acid", "value": 99.33, "unit": "%"},
      {"measurement": "Purity (%)", "setting": "with H2SO4 in acetone", "value": 98.33, "unit": "%"},
      {"measurement": "Purity (%)", "setting": "with HCl in acetone", "value": 98.61, "unit": "%"},
      {"measurement": "Purity (%)", "setting": "with methane sulfonic acid in acetone", "value": 98.71, "unit": "%"},
      {"measurement": "Purity (%)", "setting": "with p-toluene sulfonic acid in acetone", "value": 98.65, "unit": "%"}
    ]}
  ]
}
